Results reported in PMC3416860, “TC10 Is Regulated by Caveolin in 3T3-L1 Adipocytes” (PLoS ONE, 2012).
Results are given in words; binding and its absence hold for the method and conditions named. For part of these data: In cells and extracts the contact can be indirect. Some results given as binding are weak or reduced against the parent protein; the word gives no strength.

Sequences of proteins named here, by UniProt entry; tags and fusion partners are left off.
UniProt P17081: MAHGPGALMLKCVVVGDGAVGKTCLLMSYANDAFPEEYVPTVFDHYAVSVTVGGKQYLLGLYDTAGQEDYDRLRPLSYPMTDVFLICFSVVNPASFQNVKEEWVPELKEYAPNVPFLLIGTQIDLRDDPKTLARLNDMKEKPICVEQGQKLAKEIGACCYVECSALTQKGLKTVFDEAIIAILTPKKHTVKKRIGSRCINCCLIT

Experiments:
[1] = biological target: myc-Caveolin 1 wild-type (pKMyc-Caveolin 1) (UniProt Q03135); assay: co-IP; COS-1 cells co-transfected with myc-Caveolin 1 and HA-TC10 plasmids; lysed in HNTG buffer (50 mM HEPES pH 7.4, 150 mM NaCl, 10% glycerol, 1% Triton X-100); immunoprecipitated with anti-myc antibodies and Protein A/G beads, blotted for HA
[2] = biological target: T1, GST-TC10 (human, UniProt P17081 1-205); assay: pull-down; GST-TC10 on glutathione-agarose beads, preincubated with nucleotides as indicated (GDP or a nonhydrolyzable GTP analog), used to precipitate proteins from a 3T3-L1 adipocyte lysate; blot with anti-Caveolin antibodies; only the target purified
T1 construct: TC10 (RhoQ); Expression plasmid obtained from Dr. Ian Macara; Used as purified (with endogenous GDP) or preincubated with GDP or a nonhydrolyzable GTP analog; also called TC10-GDP; source: E. coli Rosetta-gami (DE3), purified (glutathione-agarose)

[3] = biological target: T1, GST-TC10; assay: pull-down; purified MBP-Caveolin 1(1-99) and GST-TC10 incubated with GDP overnight at 4 C; glutathione agarose 1 h, washed, eluted in SDS sample buffer; blots with anti-GST or anti-MBP; both purified

Molecule: HA-TC10 wild-type (pKH3-TC10), in COS-1 cells (from UniProt P17081 1-205)
- binding [1]: binds

B1: Caveolin 1, endogenous in 3T3-L1 adipocytes (natural protein, mouse (endogenous in 3T3-L1), UniProt P49817 1-178, looked up)
chain: MSGGKYVDSEGHLYTVPIREQGNIYKPNNKAMADEVTEKQVYDAHTKEIDLVNRDPKHLNDDVVKIDFEDVIAEPEGTHSFDGIWKASFTTFTVTKYWFYRLLSTIFGIPMALIWGIYFAILSFLHIWAVVPCIKSFLIEIQCISRVYSIYVHTFCDPLFEAIGKIFSNIRISTQKEI
notes: Caveolin 1, endogenous, detected with anti-Caveolin antibodies; source: endogenous, 3T3-L1 adipocyte lysate
- binding [2]: binds

B2: MBP-Caveolin 1(1-99) (domain or fragment, UniProt Q03135 1-99, looked up)
chain: MSGGKYVDSEGHLYTVPIREQGNIYKPNNKAMADELSEKQVYDAHTKEIDLVNRDPKHLNDDVVKIDFEDVIAEPEGTHSFDGIWKASFTTFTVTKYWF
notes: Caveolin 1, the first 99 amino acids; The vector may add further tags and a TEV site; source: E. coli Rosetta-gami (DE3), purified (amylose resin)
- binding [3]: binds
